# Reference: the supplement of paper PMC8551327
# This is one part of the list. Rule as the data show it: active = 1.25 or more and inactive = the rest. Repeats are few or missing, and single values can be far off.
# Test system: Kcc2-LUC knock-in mouse primary cortical neurons (Kcc2 promoter reporter)
# Test: Kcc2 promoter-driven luciferase activity relative to vehicle control (fold of vehicle (ratio)); higher = stronger Kcc2 promoter activation (Kcc2 expression enhancer)
# Details: 100 nM; 48 h
row,Structure (SMILES),Kcc2 promoter-driven luciferase activity
1,O=C1OC(c2ccco2)=N/C1=C\c1ccc(Cl)c(Cl)c1,inactive: 1.07
2,CN(N=O)C(=O)N[C@@H]1[C@@H](O)[C@H](O)[C@@H](CO)O[C@@H]1O [Streptozocin],inactive: 0.87
3,"COC(=O)c1ccc(NCc2cc(O)ccc2O)cc1 [methyl 4-[(2,5-dihydroxyphenyl)methylamino]benzoate]",inactive: 0.95
4,COc1cc2c3c(c4ccc(OC)c(OC)c4c2cc1OC)CN1CCC[C@@H]1C3 [Tylocrebrine],active: 1.42
5,COc1cc2oc3cc(=O)cc4oc(-c5ccccc5)cc(c2c2c1CC[C@@H](c1ccccc1)O2)c43,inactive: 1
6,"Cc1nc2c(nc1C)C(=O)c1ccccc1C2=O [2,3-Dimethylbenzo[g]quinoxaline-5,10-dione]",active: 1.46
7,C=C1C(=O)O[C@@H]2[C@H]3C(C)=C[C@@H](O)[C@H]3[C@@]3(CO3)C[C@@H](OC(=O)/C(C)=C\COC(C)=O)[C@@H]12 [Deoxyliatrigramin],inactive: 1.04
8,Clc1ccccc1C(c1ccccc1)(c1ccccc1)n1ccnc1 [Clotrimazole],inactive: 0.85
9,"O=C1C(Br)=C(Br)C(=O)c2ccccc21 [2,3-Dibromo-1,4-naphthoquinone]",inactive: 0.71
10,CN(C)c1ccc(/C=C2\Cc3ccccc3C2=O)cc1Br [2-(3-Bromo-4-(dimethylamino)benzylidene)-1-indanone],inactive: 0.89
